Laboratory results reported in article PMC4636137.
These are yes or no findings as the source states them, for the method shown. For part of these data: Binding seen in cells or lysates may run through a third protein. Some binding calls cover weakened binding; strength is not graded here. Tags and fused reporters may be left off the sequences shown.

Chains of the proteins cited; added tags and fusions are not shown.
UniProt P28905: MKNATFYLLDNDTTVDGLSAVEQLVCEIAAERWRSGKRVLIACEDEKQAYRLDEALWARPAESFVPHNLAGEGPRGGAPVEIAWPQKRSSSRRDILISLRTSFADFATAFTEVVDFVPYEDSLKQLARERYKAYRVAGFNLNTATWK

Key:
[1] = molecular target: T1, biotin-binding domain (BBD)-YoaA fusion protein (E. coli) (UniProt P76257); experiment: pull-down; reciprocal: streptavidin agarose resin + YoaA-BBD crude lysate (bait) + His6-HolC crude lysate (prey), washed 5 times and eluted; Western blot with penta-His antibody
T1 sequence: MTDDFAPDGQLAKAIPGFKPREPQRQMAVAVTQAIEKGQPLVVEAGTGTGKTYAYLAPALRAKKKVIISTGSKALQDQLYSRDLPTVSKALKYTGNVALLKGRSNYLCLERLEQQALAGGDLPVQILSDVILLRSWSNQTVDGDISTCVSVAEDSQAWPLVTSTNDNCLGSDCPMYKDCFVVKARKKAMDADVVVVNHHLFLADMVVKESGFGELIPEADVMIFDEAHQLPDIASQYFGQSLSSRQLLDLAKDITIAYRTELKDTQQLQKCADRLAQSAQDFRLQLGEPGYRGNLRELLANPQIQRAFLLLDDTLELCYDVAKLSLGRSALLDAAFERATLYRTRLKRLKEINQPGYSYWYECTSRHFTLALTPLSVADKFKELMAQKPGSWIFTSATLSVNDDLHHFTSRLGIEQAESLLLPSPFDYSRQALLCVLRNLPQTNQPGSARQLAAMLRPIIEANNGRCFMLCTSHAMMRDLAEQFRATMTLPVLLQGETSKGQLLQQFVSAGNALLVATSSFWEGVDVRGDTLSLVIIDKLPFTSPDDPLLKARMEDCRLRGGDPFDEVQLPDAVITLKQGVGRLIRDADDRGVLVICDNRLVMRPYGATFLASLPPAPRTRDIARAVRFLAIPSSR

[2] = molecular target: His6-tagged χ (HolC) protein (E. coli) (UniProt P28905); experiment: pull-down; His6-HolC from crude extract bound to Ni-NTA agarose (1 h, 20°) and washed five times (50 mM sodium phosphate pH 8.0, 500 mM NaCl, 20 mM imidazole); BBD-YoaA crude lysate added, incubated and washed; Western blot with NeutrAvidin-HRP; only the target purified
[3] = molecular target: HolC (yeast two-hybrid fusion) (E. coli) (UniProt P28905); experiment: two-hybrid; ProQuest yeast two-hybrid, strain MaV203; ORFs in pDEST32 (Gal4 DNA binding domain) and pDEST22 (Gal4 activation domain); growth on SC -Leu -Trp -His + 25 mM 3-AT

Molecule: His6-tagged χ (HolC) protein (from UniProt P28905 1-147)
- binding [1]: binds

B1: biotin-binding domain (BBD)-YoaA fusion protein (protein, UniProt P76257 1-636)
chain: T1 sequence
- binding [2]: binds

B2: YoaA (yeast two-hybrid fusion) (protein, UniProt P76257 1-636)
chain: T1 sequence
- binding [3]: binds
